In the supplement of paper PMC12067093, “Discovery and optimisation of a covalent ligand for TRIM25 and its application to targeted protein ubiquitination” (Chemical Science, 2025):
The other results are listed elsewhere or left out.

Chains of the proteins cited; added tags and fusions are not shown. Lines headed by an entry give the natural chain unless they say otherwise; changes in a name come on top.
UniProt O15226: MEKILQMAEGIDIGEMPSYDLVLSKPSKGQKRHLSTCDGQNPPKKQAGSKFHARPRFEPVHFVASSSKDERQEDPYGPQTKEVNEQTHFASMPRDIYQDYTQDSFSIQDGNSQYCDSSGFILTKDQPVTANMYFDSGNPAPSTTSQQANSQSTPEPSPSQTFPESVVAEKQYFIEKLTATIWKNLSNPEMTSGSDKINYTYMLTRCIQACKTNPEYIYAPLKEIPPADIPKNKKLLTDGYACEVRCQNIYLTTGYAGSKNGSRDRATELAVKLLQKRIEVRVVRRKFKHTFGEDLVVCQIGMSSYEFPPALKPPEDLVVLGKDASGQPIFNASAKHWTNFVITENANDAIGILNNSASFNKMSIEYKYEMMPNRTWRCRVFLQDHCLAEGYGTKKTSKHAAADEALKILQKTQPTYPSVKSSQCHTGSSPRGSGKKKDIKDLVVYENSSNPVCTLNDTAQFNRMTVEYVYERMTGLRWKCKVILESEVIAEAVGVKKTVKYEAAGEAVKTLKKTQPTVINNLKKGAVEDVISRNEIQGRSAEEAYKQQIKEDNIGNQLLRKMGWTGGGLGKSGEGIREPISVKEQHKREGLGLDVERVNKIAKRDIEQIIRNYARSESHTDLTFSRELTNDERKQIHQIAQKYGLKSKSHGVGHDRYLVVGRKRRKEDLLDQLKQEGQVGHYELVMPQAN
UniProt O75323: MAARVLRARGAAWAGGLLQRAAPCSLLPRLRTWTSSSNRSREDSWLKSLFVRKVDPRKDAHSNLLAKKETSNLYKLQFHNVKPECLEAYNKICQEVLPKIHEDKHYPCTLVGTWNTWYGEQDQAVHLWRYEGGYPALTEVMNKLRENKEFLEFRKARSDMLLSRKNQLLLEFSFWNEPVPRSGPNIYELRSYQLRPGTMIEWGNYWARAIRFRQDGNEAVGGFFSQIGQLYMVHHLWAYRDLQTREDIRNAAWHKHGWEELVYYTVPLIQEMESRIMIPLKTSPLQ
UniProt Q9NX24: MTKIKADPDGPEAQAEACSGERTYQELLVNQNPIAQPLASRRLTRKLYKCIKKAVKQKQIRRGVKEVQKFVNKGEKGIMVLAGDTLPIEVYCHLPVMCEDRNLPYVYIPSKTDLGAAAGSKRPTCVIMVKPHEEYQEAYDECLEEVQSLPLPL
UniProt Q86X76: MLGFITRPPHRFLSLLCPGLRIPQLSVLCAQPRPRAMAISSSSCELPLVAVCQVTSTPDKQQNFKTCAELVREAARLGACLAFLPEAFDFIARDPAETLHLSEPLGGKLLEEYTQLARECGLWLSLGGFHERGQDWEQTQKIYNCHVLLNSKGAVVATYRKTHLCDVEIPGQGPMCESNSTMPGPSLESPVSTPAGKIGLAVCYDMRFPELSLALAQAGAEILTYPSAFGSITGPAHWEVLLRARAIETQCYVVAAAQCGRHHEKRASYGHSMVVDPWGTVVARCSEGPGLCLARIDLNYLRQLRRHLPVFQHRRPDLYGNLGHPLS
UniProt Q9Y618, whole entry, looked up: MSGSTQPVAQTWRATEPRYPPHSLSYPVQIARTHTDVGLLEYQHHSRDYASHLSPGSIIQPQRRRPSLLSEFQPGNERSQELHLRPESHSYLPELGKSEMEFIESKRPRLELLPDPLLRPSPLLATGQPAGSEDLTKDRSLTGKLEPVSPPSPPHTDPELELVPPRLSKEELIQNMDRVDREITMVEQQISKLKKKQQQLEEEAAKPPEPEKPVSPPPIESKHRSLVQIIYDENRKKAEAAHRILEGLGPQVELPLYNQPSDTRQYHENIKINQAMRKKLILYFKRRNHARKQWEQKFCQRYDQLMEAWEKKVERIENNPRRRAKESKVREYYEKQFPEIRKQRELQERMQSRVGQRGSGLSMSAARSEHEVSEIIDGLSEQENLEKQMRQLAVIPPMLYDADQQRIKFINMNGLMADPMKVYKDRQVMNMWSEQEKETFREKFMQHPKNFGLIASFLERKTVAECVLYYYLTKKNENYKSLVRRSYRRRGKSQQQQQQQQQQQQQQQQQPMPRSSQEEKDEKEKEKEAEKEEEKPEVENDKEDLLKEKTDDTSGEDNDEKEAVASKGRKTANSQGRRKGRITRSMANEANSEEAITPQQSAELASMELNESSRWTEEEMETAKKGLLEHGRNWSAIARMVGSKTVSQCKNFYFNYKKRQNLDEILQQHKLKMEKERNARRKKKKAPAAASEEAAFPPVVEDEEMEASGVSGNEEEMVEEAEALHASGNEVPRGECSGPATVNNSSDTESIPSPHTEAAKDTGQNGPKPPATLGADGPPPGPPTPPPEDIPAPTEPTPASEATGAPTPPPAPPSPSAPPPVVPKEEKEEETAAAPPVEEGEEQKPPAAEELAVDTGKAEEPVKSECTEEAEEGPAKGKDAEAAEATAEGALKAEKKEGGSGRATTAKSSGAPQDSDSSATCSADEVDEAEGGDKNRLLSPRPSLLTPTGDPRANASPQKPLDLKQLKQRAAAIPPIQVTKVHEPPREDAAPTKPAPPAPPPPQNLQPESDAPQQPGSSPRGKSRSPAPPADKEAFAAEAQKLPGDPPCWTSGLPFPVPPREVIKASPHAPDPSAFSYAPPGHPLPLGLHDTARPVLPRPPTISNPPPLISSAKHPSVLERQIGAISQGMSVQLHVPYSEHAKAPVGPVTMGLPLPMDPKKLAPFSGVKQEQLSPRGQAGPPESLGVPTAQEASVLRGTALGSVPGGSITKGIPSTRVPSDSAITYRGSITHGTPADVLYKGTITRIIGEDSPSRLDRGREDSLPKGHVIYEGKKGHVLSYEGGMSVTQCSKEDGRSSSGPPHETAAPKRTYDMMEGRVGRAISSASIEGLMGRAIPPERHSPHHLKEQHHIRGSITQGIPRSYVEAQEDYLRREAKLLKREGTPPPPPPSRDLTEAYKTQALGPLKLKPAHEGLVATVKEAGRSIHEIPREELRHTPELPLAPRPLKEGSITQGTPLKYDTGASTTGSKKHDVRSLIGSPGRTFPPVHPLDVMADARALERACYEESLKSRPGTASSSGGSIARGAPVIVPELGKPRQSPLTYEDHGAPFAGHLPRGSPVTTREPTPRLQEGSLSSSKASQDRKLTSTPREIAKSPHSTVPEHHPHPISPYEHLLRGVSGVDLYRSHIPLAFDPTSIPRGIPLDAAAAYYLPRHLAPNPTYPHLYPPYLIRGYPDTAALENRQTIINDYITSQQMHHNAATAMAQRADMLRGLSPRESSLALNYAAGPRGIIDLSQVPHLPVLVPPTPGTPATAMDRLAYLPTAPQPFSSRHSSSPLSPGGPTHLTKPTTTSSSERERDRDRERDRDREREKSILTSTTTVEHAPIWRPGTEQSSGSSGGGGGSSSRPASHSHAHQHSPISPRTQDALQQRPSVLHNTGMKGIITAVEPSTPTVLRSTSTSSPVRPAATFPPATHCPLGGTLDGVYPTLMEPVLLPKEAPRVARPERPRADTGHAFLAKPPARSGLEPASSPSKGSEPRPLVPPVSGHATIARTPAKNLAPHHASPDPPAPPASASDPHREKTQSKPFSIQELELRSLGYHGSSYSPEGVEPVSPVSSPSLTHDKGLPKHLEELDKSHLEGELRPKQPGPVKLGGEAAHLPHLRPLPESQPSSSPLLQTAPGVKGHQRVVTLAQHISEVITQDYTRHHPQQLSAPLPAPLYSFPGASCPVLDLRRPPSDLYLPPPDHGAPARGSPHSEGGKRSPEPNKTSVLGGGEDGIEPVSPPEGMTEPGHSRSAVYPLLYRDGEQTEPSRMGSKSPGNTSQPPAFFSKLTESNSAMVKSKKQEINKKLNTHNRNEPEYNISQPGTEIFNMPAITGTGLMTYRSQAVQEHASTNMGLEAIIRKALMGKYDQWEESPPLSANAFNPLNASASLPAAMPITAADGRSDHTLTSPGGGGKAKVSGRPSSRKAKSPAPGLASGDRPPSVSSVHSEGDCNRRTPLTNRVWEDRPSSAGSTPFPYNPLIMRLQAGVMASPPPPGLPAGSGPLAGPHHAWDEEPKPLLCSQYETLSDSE
UniProt Q9HCD5: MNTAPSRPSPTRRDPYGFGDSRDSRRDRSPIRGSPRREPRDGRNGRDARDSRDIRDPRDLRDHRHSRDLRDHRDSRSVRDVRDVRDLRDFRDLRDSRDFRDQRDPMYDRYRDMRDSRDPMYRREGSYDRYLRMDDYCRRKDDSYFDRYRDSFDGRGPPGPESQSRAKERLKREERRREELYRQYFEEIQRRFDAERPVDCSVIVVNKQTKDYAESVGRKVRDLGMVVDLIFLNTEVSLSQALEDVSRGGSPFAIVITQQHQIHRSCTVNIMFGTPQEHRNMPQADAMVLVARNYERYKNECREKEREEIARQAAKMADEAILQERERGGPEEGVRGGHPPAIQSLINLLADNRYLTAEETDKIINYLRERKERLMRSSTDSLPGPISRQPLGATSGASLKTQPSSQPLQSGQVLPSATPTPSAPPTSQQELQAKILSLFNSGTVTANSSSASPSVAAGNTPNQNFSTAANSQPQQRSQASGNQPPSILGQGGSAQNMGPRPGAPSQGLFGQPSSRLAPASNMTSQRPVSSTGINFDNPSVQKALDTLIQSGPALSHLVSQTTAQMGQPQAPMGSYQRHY
UniProt Q12986: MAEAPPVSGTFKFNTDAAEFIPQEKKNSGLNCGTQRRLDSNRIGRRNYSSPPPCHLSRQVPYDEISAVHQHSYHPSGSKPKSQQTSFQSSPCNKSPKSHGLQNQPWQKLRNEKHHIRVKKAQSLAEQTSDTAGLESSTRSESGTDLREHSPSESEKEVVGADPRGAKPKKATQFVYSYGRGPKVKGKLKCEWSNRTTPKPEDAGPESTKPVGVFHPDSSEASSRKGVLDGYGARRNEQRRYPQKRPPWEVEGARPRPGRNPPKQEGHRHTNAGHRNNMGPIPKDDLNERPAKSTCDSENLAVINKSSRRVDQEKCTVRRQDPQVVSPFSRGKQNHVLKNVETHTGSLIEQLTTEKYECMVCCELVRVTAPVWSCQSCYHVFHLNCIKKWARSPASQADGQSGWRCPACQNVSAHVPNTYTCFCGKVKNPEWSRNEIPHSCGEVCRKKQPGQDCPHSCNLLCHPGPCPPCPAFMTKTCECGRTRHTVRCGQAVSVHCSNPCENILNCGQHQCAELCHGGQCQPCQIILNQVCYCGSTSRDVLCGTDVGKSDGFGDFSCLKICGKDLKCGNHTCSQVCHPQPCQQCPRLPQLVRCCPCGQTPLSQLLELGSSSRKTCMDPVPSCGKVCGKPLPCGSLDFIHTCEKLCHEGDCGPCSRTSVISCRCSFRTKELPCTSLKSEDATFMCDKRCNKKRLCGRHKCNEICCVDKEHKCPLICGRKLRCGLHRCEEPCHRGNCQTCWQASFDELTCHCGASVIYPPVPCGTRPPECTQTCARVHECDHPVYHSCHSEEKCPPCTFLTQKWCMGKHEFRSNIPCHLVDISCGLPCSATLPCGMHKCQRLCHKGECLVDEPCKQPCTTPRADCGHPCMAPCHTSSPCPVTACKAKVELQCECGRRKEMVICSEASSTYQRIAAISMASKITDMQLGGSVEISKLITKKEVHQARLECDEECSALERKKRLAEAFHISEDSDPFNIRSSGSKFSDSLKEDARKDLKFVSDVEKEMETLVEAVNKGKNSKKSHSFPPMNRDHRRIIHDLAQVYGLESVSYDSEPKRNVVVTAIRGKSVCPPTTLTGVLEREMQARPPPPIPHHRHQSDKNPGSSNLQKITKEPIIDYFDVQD
UniProt O43920, whole entry, looked up: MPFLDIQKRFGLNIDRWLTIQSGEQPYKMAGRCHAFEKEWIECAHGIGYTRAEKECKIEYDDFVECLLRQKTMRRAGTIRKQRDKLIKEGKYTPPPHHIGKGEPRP
UniProt Q16718, whole entry, looked up: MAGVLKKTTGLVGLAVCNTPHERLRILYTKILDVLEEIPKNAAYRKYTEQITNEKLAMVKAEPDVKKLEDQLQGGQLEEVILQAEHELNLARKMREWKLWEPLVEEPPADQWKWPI
UniProt P17568, whole entry, looked up: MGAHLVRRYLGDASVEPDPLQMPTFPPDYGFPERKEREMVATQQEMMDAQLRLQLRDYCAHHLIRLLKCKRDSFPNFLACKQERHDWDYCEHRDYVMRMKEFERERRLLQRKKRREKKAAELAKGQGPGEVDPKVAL
UniProt P08651, whole entry, looked up: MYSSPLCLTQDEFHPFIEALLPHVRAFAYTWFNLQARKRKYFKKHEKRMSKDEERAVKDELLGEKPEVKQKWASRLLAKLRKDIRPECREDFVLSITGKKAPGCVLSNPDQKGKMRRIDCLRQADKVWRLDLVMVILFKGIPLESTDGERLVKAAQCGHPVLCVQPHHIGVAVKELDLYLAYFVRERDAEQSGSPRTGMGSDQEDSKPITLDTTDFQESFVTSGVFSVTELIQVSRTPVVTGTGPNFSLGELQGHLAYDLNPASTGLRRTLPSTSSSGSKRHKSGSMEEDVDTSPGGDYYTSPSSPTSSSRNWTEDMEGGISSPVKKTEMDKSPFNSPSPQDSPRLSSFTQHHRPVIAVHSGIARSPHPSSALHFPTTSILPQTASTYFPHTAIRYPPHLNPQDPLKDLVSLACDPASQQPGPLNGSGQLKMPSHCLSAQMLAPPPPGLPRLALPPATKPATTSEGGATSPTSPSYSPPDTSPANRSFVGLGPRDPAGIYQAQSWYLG

Compound: Cc1cc(ccc1-c1ccccc1)C(=O)N1CCCN(CC1)C(=O)CCl [compound 10]
Assay: probe-labelled cysteine peptide fold change vs DMSO (competition) (log2 fold change); higher = less target engagement (more negative = stronger competition)
Details: THP-1, incubation time: 4 h
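Also: competitive profiling in live THP-1 cells: cysteine peptides tagged with an iodoacetamide desthiobiotin (IA-DTB) probe, intensity after compound treatment relative to DMSO-treated cells.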

## NIT2_Q9NQR4_44_IVSLPECFNSPYGAK (UniProt Q9NQR4)
10 µM
  probe-labelled cysteine peptide fold change: -0.0068
50 µM
  probe-labelled cysteine peptide fold change: 0.0915

## NKRF_O15226_453_DLVVYENSSNPVCTLNDTAQFNR (UniProt O15226)
10 µM
  probe-labelled cysteine peptide fold change: 0.234
50 µM
  probe-labelled cysteine peptide fold change: -0.0806

## NDUFAF3_Q9BU61_150_GIAVEVQDTPNACATFNFLCHEGR (UniProt Q9BU61)
10 µM
  probe-labelled cysteine peptide fold change: 0.338
50 µM
  probe-labelled cysteine peptide fold change: -0.204

## NELFB_Q8WX92_235_NVHYCTLR (UniProt Q8WX92)
10 µM
  probe-labelled cysteine peptide fold change: 0.00574
50 µM
  probe-labelled cysteine peptide fold change: 0.239

## NEK9_Q8TD19_375_QVCAGNTHFAVVTVEK (UniProt Q8TD19)
10 µM
  probe-labelled cysteine peptide fold change: 0.0417
50 µM
  probe-labelled cysteine peptide fold change: -0.161

## NIPSNAP2_O75323_85_LQFHNVKPECLEAYNK (UniProt O75323)
10 µM
  probe-labelled cysteine peptide fold change: -0.204
50 µM
  probe-labelled cysteine peptide fold change: -0.0373

## NHP2_Q9NX24_142_PHEEYQEAYDECLEEVQSLPLPL (UniProt Q9NX24)
10 µM
  probe-labelled cysteine peptide fold change: 0.0526
50 µM
  probe-labelled cysteine peptide fold change: 0.242

## NIT1_Q86X76_285+292_CSEGPGLCLAR (UniProt Q86X76)
10 µM
  probe-labelled cysteine peptide fold change: 0.0591
50 µM
  probe-labelled cysteine peptide fold change: -0.166

## NEK6_Q9HC98_157_YFVQLCSAVEHMHSR (UniProt Q9HC98)
10 µM
  probe-labelled cysteine peptide fold change: 0.0413
50 µM
  probe-labelled cysteine peptide fold change: -0.112

## NCOR2_Q9Y618_1289_KGHVLSYEGGMSVTQCSK (UniProt Q9Y618)
10 µM
  probe-labelled cysteine peptide fold change: -0.194
50 µM
  probe-labelled cysteine peptide fold change: -0.401

## NCOA5_Q9HCD5_200_RFDAERPVDCSVIVVNK (UniProt Q9HCD5)
10 µM
  probe-labelled cysteine peptide fold change: 0.081
50 µM
  probe-labelled cysteine peptide fold change: 0.00246

## NFX1_Q12986_684_SEDATFMCDK (UniProt Q12986)
10 µM
  probe-labelled cysteine peptide fold change: 0.0195
50 µM
  probe-labelled cysteine peptide fold change: -0.433

## NDUFS5_O43920_43_EWIECAHGIGYTR (UniProt O43920)
10 µM
  probe-labelled cysteine peptide fold change: -0.0931
50 µM
  probe-labelled cysteine peptide fold change: 0.0363

## NDUFA10_O95299_112_HFPEAGIHYPDSTTGDGKPLATDYNGNCSLEK (UniProt O95299)
10 µM
  probe-labelled cysteine peptide fold change: -0.194
50 µM
  probe-labelled cysteine peptide fold change: -0.224

## NFX1_Q12986_295_STCDSENLAVINK (UniProt Q12986)
10 µM
  probe-labelled cysteine peptide fold change: 0.0638
50 µM
  probe-labelled cysteine peptide fold change: -0.0574

## NKRF_O15226_37_HLSTCDGQNPPKK (UniProt O15226)
10 µM
  probe-labelled cysteine peptide fold change: 0.0897
50 µM
  probe-labelled cysteine peptide fold change: -0.593

## NHEJ1_Q9H9Q4_97_DAAHPSEATFSCDCVADALILR (UniProt Q9H9Q4)
10 µM
  probe-labelled cysteine peptide fold change: -0.172
50 µM
  probe-labelled cysteine peptide fold change: -0.319

## NDUFA5_Q16718_17_TTGLVGLAVCNTPHER (UniProt Q16718)
10 µM
  probe-labelled cysteine peptide fold change: -0.174
50 µM
  probe-labelled cysteine peptide fold change: -0.188

## NID1_P14543_1219_LYGITTALSQCPQGHNYCSVNNGGCTHLCLATPGSR (UniProt P14543)
10 µM
  probe-labelled cysteine peptide fold change: -0.321
50 µM
  probe-labelled cysteine peptide fold change: -0.712

## NFX1_Q12986_951_LECDEECSALER (UniProt Q12986)
10 µM
  probe-labelled cysteine peptide fold change: 0.0772
50 µM
  probe-labelled cysteine peptide fold change: -0.146

## NDUFS1_P28331_64_FCYHER (UniProt P28331)
10 µM
  probe-labelled cysteine peptide fold change: -0.0829
50 µM
  probe-labelled cysteine peptide fold change: -0.202

## NEDD4_P46934-4_4_ATCAVEVFGLLEDEENSR (UniProt P46934)
10 µM
  probe-labelled cysteine peptide fold change: -0.332
50 µM
  probe-labelled cysteine peptide fold change: -0.281

## NFKBIE_O00221_335_HGDTALHVACQR (UniProt O00221)
10 µM
  probe-labelled cysteine peptide fold change: 0.0998
50 µM
  probe-labelled cysteine peptide fold change: -0.158

## NDUFB7_P17568_80_DSFPNFLACK (UniProt P17568)
10 µM
  probe-labelled cysteine peptide fold change: -0.134
50 µM
  probe-labelled cysteine peptide fold change: -0.00935

## NFX1_Q12986_444_NEIPHSCGEVCR (UniProt Q12986)
10 µM
  probe-labelled cysteine peptide fold change: 0.165
50 µM
  probe-labelled cysteine peptide fold change: 0.0254

## NFATC3_Q12968_90_NYEGTCEIPESK (UniProt Q12968)
10 µM
  probe-labelled cysteine peptide fold change: -0.215
50 µM
  probe-labelled cysteine peptide fold change: -0.319

## NKRF_O15226_242_LLTDGYACEVR (UniProt O15226)
10 µM
  probe-labelled cysteine peptide fold change: 0.0704
50 µM
  probe-labelled cysteine peptide fold change: -0.331

## NKAP_Q8N5F7_47_SHSCSR (UniProt Q8N5F7)
10 µM
  probe-labelled cysteine peptide fold change: -0.0637
50 µM
  probe-labelled cysteine peptide fold change: -0.481

## NCKIPSD_Q9NZQ3_138_QPNGVCR (UniProt Q9NZQ3)
10 µM
  probe-labelled cysteine peptide fold change: -0.425
50 µM
  probe-labelled cysteine peptide fold change: -0.733

## NCKIPSD_Q9NZQ3_700_ILNEEETSPQCQMDR (UniProt Q9NZQ3)
10 µM
  probe-labelled cysteine peptide fold change: 0.0808
50 µM
  probe-labelled cysteine peptide fold change: 0.139

## NEK7_Q8TDX7_146_YFVQLCSALEHMHSR (UniProt Q8TDX7)
10 µM
  probe-labelled cysteine peptide fold change: 0.0437
50 µM
  probe-labelled cysteine peptide fold change: 0.15

## NEU1_Q99519_287_NQNNYHCHCR (UniProt Q99519)
10 µM
  probe-labelled cysteine peptide fold change: 0.0522
50 µM
  probe-labelled cysteine peptide fold change: -0.00745

## NDUFA10_O95299_183_QCVDHYNEVK (UniProt O95299)
10 µM
  probe-labelled cysteine peptide fold change: -0.0749
50 µM
  probe-labelled cysteine peptide fold change: -0.128

## NDUFV1_P49821_385_HESCGQCTPCR (UniProt P49821)
10 µM
  probe-labelled cysteine peptide fold change: -0.00154
50 µM
  probe-labelled cysteine peptide fold change: 0.863

## NIT1_Q86X76_67_TCAELVR (UniProt Q86X76)
10 µM
  probe-labelled cysteine peptide fold change: 0.0195
50 µM
  probe-labelled cysteine peptide fold change: 0.121

## NDUFS6_O75380_112_TGTCGYCGLQFR (UniProt O75380)
10 µM
  probe-labelled cysteine peptide fold change: -0.219
50 µM
  probe-labelled cysteine peptide fold change: -0.308

## NHP2_Q9NX24_18_IKADPDGPEAQAEACSGER (UniProt Q9NX24)
10 µM
  probe-labelled cysteine peptide fold change: -0.258
50 µM
  probe-labelled cysteine peptide fold change: -0.496

## NDUFB7_P17568_80_RDSFPNFLACK (UniProt P17568)
10 µM
  probe-labelled cysteine peptide fold change: -0.129
50 µM
  probe-labelled cysteine peptide fold change: -0.352

## NFIC_P08651_104_KAPGCVLSNPDQK (UniProt P08651)
10 µM
  probe-labelled cysteine peptide fold change: -0.162
50 µM
  probe-labelled cysteine peptide fold change: -0.158

## NFAT5_O94916_270_KSPMLCGQYPVK (UniProt O94916)
10 µM
  probe-labelled cysteine peptide fold change: -0.106
50 µM
  probe-labelled cysteine peptide fold change: -0.791

## NEMF_O60524_663_VDESCVWR (UniProt O60524)
10 µM
  probe-labelled cysteine peptide fold change: -0.358
50 µM
  probe-labelled cysteine peptide fold change: 0.713

## NFX1_Q12986_730_CEEPCHR (UniProt Q12986)
10 µM
  probe-labelled cysteine peptide fold change: 0.0939
50 µM
  probe-labelled cysteine peptide fold change: 0.0985
